From paper PMC10032668
Results are given in words; binding and its absence hold for the method and conditions named. Some binding calls cover weakened binding; strength is not graded here. Blank lines part the entries; values can stand above or below the molecule they belong to.

By UniProt entry, the sequences of proteins in these tests, tags left out.
UniProt Q00610: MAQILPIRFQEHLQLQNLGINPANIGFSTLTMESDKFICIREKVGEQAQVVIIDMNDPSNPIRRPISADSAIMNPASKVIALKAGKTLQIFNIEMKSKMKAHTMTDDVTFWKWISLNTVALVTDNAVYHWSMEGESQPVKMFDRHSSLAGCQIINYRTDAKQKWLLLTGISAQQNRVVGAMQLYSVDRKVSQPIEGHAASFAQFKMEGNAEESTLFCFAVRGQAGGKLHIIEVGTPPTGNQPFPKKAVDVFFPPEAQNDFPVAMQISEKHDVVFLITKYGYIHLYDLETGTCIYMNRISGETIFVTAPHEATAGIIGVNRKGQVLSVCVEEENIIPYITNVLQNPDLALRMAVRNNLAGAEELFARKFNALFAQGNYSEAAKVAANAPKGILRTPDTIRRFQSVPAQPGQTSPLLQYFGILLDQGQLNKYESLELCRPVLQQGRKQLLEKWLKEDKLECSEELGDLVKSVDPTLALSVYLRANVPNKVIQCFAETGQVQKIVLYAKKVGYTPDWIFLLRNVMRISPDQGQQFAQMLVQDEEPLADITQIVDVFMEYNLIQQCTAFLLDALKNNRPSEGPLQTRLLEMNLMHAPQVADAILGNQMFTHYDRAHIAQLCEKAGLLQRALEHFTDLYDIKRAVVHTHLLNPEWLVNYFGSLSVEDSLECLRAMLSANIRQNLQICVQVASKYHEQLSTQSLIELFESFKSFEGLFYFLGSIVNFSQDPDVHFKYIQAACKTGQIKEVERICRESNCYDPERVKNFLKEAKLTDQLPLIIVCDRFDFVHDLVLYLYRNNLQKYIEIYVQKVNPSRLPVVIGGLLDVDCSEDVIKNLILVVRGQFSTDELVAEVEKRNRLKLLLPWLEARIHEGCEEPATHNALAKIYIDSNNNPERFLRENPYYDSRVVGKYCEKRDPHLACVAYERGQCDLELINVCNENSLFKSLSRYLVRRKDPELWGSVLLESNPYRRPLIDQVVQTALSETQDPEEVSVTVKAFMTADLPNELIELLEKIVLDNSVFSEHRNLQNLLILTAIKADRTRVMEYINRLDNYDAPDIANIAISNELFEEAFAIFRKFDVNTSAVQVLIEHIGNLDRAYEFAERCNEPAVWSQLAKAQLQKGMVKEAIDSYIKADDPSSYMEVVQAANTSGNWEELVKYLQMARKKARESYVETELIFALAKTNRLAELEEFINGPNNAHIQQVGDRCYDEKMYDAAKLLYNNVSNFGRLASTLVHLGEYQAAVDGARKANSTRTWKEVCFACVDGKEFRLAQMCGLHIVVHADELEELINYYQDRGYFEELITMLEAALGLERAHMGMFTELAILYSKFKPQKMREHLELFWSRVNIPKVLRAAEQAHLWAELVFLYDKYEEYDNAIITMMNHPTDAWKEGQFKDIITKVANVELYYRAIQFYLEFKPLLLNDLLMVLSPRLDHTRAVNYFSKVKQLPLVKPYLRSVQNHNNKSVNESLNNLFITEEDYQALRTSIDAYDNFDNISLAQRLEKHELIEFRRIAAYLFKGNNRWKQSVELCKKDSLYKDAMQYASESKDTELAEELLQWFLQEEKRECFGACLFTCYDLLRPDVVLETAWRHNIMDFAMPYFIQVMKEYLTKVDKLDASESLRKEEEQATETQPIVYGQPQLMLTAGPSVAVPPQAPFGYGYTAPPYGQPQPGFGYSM
UniProt P53675: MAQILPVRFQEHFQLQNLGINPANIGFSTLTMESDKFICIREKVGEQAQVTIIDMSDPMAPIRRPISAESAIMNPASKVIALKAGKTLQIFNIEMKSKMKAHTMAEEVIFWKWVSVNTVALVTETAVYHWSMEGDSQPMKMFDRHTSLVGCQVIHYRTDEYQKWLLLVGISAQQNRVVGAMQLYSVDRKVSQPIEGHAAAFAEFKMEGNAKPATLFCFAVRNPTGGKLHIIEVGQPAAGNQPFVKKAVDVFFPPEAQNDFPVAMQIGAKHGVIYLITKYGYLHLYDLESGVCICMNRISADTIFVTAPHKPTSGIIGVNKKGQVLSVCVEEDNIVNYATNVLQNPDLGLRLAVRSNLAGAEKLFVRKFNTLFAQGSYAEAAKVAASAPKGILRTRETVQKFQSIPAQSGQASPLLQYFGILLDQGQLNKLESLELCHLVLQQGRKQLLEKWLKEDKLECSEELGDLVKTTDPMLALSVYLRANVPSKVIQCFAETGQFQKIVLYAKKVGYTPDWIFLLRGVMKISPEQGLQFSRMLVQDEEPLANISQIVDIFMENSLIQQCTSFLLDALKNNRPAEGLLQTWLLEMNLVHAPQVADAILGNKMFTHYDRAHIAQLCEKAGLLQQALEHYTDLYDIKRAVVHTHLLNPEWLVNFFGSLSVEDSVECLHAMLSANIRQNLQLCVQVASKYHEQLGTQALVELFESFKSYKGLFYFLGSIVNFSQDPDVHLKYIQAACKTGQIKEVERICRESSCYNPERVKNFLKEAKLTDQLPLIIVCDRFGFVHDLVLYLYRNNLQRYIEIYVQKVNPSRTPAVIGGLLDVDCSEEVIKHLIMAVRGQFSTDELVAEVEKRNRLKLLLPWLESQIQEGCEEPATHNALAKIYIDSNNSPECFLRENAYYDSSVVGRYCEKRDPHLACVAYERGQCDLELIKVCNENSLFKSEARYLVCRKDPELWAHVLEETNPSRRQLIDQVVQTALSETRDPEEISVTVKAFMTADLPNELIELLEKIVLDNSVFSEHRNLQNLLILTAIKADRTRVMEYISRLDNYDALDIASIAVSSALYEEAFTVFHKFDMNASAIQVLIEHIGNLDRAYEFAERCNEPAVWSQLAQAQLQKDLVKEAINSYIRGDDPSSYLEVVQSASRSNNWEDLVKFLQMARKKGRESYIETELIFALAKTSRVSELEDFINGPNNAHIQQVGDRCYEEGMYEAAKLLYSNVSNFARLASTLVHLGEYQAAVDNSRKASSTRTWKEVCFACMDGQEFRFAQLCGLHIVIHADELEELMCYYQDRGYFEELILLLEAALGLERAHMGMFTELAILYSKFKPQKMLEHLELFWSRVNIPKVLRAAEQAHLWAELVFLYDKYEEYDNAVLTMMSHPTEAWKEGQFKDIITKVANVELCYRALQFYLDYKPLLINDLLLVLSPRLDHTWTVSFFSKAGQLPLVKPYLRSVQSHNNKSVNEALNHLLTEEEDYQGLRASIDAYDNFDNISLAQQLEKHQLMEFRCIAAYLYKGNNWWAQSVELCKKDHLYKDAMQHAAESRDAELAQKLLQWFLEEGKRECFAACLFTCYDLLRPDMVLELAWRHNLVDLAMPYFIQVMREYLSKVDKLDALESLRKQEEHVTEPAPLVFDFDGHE

Target: T1, MTMR3-uORF-peptide (human)
T1 sequence (peptide): MLLWL
Test: peptide or protein array; PRISMA, second screen: 221 peptides of 3-15 aa in full length and four SOS1/GLUT1 control peptides spot-synthesized on a cellulose membrane, incubated with HEK293T lysate; bound proteins by LC-MS/MS with LFQ, each peptide against all other peptides; cutoff c = 6, x0 = 2.8; triplicates; only the target purified

binding: binds
Molecule: CLTC (from UniProt Q00610 1-1675)

binding: binds
Molecule: CLTCL1 (from UniProt P53675 1-1640)

binding: binds
B1: CLTA (protein, UniProt P09496 1-248)
chain: MAELDPFGAPAGAPGGPALGNGVAGAGEEDPAAAFLAQQESEIAGIENDEAFAILDGGAPGPQPHGEPPGGPDAVDGVMNGEYYQESNGPTDSYAAISQVDRLQSEPESIRKWREEQMERLEALDANSRKQEAEWKEKAIKELEEWYARQDEQLQKTKANNRVADEAFYKQPFADVIGYVTNINHPCYSLEQAAEEAFVNDIDESSPGTEWERVARLCDFNPKSSKQAKDVSRMRSVLISLKQAPLVH

binding: binds
B2: PICALM (protein, UniProt Q13492 1-652)
chain: MSGQSLTDRITAAQHSVTGSAVSKTVCKATTHEIMGPKKKHLDYLIQCTNEMNVNIPQLADSLFERTTNSSWVVVFKSLITTHHLMVYGNERFIQYLASRNTLFNLSNFLDKSGLQGYDMSTFIRRYSRYLNEKAVSYRQVAFDFTKVKRGADGVMRTMNTEKLLKTVPIIQNQMDALLDFNVNSNELTNGVINAAFMLLFKDAIRLFAAYNEGIINLLEKYFDMKKNQCKEGLDIYKKFLTRMTRISEFLKVAEQVGIDRGDIPDLSQAPSSLLDALEQHLASLEGKKIKDSTAASRATTLSNAVSSLASTGLSLTKVDEREKQAALEEEQARLKALKEQRLKELAKKPHTSLTTAASPVSTSAGGIMTAPAIDIFSTPSSSNSTSKLPNDLLDLQQPTFHPSVHPMSTASQVASTWGDPFSATVDAVDDAIPSLNPFLTKSSGDVHLSISSDVSTFTTRTPTHEMFVGFTPSPVAQPHPSAGLNVDFESVFGNKSTNVIVDSGGFDELGGLLKPTVASQNQNLPVAKLPPSKLVSDDLDSSLANLVGNLGIGNGTTKNDVNWSQPGEKKLTGGSNWQPKVAPTTAWNAATMAPPVMAYPATTPTGMIGYGIPPQMGSVPVMTQPTLIYSQPVMRPPNPFGPVSGAQIQFM
